This note sets out measurements from paper PMC9224307.

Chains of the proteins cited; added tags and fusions are not shown. Lines headed by an entry give the natural chain unless they say otherwise; changes in a name come on top.
UniProt Q99757: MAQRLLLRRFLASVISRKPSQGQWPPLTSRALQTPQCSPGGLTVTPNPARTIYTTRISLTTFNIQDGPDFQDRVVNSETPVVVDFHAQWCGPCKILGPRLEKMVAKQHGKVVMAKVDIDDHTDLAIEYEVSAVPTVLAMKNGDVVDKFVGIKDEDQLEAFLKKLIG
UniProt Q15286: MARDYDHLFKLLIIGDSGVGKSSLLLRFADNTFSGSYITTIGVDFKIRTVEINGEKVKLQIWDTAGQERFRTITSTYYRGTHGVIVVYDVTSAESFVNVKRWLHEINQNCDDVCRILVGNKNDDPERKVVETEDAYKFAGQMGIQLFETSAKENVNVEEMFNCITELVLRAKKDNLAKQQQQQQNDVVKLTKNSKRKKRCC

Results are given in words; binding and its absence hold for the method and conditions named. In cells and extracts the contact can be indirect. A yes stands for co-enrichment or nearness to the bait. Other partners may have been found.

The target in this test is FLAG-tagged full-length (FL) TRX2 (mitochondrial thioredoxin 2) (human) (UniProt Q99757). The test can be described thus: affinity purification with mass spectrometry; HCT116 transfected with FLAG-TRX2 or pcDNA3.1+; lysate in nondenaturing RIPA buffer, anti-FLAG magnetic beads overnight at 4 °C, washed with PBST; silver-stained bands specific to FLAG-TRX2 excised, LC-MS/MS.

Take “Rab35 (endogenous) (from UniProt Q15286 1-201)”: the binding result was “binds”.
